According to article PMC10998843:
These are yes or no findings as the source states them, for the method shown. Binding calls can cover weak binding; strength is not graded here. For some of these results: Tags and fused reporters may be left off the sequences shown. For some of these results: Binding seen in cells or lysates may run through a third protein. Values belong to the binder of their own block, whether it stands above or below them.

What was measured:
[1] = molecular target: MtKNOX1-GFP (Medicago truncatula); assay: co-IP; MtKNOX-GFP and PINNA1-7Myc co-expressed in N. benthamiana leaves; total protein extract precipitated with GFP-Trap magnetic agarose beads, 4 °C, 4 h, 150 mM NaCl, 0.5% Triton X-100, pH 7.5; blot with anti-Myc
[2] = molecular target: MtKNOX2-GFP (Medicago truncatula); assay: as above
[3] = molecular target: MtKNOX6-GFP (Medicago truncatula); assay: as above
[4] = molecular target: MtKNOX7-GFP (Medicago truncatula); assay: as above
[5] = molecular target: MtKNOX1-YN (Medicago truncatula); assay: split reporter; BiFC: MtKNOX-YN and PINNA1-YC co-infiltrated into N. benthamiana leaves by Agrobacterium GV3101; YFP signal by confocal microscopy
[6] = molecular target: MtKNOX2-YN (Medicago truncatula); assay: as above
[7] = molecular target: MtKNOX6-YN (Medicago truncatula); assay: as above
[8] = molecular target: MtKNOX7-YN (Medicago truncatula); assay: as above
[9] = molecular target: MtKNOX1 MEINOX2 domain, BD fusion (Medicago truncatula); assay: two-hybrid; baits in pGBKT7 (full length or truncated MEINOX domains), prey PINNA1-AD in pGADT7; yeast strain AH109; selective medium SD/-Leu/-Trp/-His/X-a-gal/15 mM 3-AT; X-a-Gal filter assay
[10] = molecular target: MtKNOX1-BD (Medicago truncatula); assay: as above
[11] = molecular target: MtKNOX2 MEINOX2 domain, BD fusion (Medicago truncatula); assay: as above
[12] = molecular target: MtKNOX2-BD (Medicago truncatula); assay: as above
[13] = molecular target: MtKNOX6 MEINOX2 domain, BD fusion (Medicago truncatula); assay: as above
[14] = molecular target: MtKNOX6-BD (Medicago truncatula); assay: as above
[15] = molecular target: MtKNOX7 MEINOX1 domain, BD fusion (Medicago truncatula); assay: as above
[16] = molecular target: MtKNOX7-BD (Medicago truncatula); assay: as above

binding [1]: binds | binding [2]: binds | binding [3]: binds | binding [4]: binds
B1: PINNA1-7Myc (protein, UniProt A0A6C0N3V9 1-443)
chain: MMSNSMTHQNQFENQELLGGGYVSSSLRNNNAYHESLGTFSNNIGLAQGSEMSHTRHLMDLLGAANENNHQTQQGLSLSLGSHMLVDEYRNRSLNQGLMINPSYFMPGQDQTREPCNQPVVENLTSDYFFSGGSGTFASGSNNNNSLLLNRSTSTSYGSESFGSVIGNSRYLKPVQSLLEDLVDVGGNVIDRMNEKYAEKLFHGSRTGARTLSSELKAELRIHGHLLADKHEHQVKIAKLISLLDEVEGRYEKYYHQMEEVVSSFEMIAGLGAAKCYTALALQAMSRHFCSLRDAIMSQINAEKRKLFQDVPKINSGLSQLSLFERDNNRQTRMSLQQLGVIQNQRQVWRPIRGLPETSVAILRAWLFEHFLHPYPNDSEKLILASQTGLTKNQVSNWFINARVRLWKPMIEEMYKEEFGDSSEDSNPPANNFMSREDSTVED

binding [5]: binds | binding [6]: binds | binding [7]: binds | binding [8]: binds
B2: PINNA1-YC (protein, UniProt A0A6C0N3V9 1-443)
chain: B1 chain

binding [9]: binds | binding [10]: binds | binding [11]: binds | binding [12]: binds | binding [13]: binds | binding [14]: binds | binding [15]: binds | binding [16]: binds
B3: PINNA1-AD (protein, UniProt A0A6C0N3V9 1-443)
chain: B1 chain
